Measured values reported in the supplement of paper PMC10849652.
This is one part of the list.

Amino acid sequences for entries named in this document (tags omitted). A change or cut given only in a name is not applied to a line headed by its entry.
UniProt O00220, whole entry, looked up: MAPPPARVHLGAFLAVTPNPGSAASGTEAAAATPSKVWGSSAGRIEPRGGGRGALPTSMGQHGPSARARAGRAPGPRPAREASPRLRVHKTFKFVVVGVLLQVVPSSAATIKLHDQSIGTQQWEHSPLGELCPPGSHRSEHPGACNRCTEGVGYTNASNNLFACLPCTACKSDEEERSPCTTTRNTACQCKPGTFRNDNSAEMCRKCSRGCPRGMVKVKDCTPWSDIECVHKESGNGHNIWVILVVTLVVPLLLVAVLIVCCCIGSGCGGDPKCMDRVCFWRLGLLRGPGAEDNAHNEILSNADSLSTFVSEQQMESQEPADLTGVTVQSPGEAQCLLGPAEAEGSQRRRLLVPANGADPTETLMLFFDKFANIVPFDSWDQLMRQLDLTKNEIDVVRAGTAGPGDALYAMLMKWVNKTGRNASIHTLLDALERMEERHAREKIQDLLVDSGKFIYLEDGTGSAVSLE
UniProt Q0P6H9: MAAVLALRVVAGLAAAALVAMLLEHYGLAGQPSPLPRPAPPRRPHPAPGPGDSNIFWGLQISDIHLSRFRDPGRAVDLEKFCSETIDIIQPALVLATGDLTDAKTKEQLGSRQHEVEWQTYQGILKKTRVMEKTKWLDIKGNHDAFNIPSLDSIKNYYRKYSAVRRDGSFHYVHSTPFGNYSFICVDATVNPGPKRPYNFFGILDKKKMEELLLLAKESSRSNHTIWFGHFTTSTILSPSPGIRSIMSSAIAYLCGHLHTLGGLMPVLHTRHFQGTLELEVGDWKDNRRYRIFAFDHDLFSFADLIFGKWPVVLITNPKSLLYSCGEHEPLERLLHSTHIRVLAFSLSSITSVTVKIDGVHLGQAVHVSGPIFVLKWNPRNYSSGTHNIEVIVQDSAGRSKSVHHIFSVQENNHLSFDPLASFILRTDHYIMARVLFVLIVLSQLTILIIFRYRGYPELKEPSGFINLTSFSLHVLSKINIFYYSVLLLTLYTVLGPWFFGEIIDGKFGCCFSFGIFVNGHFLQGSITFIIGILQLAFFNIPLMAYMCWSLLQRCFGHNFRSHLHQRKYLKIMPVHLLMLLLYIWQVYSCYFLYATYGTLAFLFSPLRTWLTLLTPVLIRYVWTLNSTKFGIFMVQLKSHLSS
UniProt Q15025: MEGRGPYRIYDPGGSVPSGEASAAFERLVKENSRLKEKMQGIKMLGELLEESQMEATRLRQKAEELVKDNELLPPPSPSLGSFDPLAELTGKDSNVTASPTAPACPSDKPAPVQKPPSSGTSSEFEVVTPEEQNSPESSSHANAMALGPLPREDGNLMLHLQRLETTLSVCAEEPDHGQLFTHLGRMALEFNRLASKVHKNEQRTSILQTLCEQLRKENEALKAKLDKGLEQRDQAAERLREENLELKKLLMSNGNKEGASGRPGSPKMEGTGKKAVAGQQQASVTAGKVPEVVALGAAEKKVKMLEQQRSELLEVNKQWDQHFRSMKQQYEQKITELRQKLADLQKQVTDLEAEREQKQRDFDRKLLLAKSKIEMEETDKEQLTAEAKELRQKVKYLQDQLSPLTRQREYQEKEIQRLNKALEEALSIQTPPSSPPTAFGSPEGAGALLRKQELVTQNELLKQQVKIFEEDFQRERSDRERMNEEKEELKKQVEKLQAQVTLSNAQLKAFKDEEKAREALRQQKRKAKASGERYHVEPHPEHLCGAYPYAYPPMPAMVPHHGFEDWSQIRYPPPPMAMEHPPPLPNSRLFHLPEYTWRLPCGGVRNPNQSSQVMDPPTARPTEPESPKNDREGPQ
UniProt Q16890: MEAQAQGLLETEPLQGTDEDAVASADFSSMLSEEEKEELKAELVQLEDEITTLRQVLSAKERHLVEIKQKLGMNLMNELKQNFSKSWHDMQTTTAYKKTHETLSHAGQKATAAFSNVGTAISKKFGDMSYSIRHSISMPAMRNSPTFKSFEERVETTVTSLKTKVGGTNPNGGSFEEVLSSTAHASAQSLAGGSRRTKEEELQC
UniProt Q5SWH9: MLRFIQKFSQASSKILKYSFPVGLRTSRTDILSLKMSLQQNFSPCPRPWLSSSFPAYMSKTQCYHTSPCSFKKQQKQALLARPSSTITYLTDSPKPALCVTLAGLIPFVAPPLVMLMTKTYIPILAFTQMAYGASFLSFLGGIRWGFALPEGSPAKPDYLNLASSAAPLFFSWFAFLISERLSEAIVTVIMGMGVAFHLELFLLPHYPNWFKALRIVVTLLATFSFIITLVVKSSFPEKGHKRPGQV
UniProt Q9NV96: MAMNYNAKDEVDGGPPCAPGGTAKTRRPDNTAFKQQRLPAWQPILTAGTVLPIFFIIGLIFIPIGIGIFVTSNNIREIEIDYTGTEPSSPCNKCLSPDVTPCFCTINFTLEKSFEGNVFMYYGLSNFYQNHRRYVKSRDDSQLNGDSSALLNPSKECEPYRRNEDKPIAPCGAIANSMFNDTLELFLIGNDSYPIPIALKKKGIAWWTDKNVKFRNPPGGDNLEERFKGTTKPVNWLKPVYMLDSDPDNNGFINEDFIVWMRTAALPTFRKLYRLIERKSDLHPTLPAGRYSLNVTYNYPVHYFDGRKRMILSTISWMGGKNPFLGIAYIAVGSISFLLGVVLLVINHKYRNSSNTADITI
UniProt P67936, whole entry, looked up: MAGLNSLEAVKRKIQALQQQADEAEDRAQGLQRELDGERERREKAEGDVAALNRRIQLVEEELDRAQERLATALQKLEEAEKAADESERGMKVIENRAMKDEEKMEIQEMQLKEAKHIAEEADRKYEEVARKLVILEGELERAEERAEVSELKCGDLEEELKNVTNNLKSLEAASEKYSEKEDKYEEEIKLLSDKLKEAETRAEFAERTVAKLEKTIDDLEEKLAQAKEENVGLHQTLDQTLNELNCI
UniProt A0PJW6: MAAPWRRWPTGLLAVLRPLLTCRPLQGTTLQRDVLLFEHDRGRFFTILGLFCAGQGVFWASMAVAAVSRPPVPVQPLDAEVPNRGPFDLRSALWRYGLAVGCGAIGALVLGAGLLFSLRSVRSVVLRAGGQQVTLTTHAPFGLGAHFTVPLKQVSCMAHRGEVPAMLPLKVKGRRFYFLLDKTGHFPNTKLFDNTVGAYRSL
UniProt Q15388, whole entry, looked up: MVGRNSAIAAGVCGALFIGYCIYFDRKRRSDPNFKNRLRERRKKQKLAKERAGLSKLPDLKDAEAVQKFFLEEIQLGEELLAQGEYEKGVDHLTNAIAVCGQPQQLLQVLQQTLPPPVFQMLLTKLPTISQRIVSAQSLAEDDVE
UniProt Q4ZIN3: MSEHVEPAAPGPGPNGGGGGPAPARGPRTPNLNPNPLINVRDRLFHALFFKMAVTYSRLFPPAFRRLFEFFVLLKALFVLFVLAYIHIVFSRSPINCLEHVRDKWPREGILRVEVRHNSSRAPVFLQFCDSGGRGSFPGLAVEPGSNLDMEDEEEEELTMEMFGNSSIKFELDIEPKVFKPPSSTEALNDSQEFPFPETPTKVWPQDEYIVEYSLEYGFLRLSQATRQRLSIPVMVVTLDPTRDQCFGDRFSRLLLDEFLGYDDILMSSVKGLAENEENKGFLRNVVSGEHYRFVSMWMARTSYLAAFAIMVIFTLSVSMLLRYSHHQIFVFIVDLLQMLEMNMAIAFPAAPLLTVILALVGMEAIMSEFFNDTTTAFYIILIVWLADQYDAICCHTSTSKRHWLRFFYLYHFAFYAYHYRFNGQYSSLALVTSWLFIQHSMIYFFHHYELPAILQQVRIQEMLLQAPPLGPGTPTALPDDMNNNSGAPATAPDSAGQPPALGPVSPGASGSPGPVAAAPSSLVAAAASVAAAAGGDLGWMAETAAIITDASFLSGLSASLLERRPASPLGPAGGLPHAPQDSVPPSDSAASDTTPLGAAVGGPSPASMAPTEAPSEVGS
UniProt P29144: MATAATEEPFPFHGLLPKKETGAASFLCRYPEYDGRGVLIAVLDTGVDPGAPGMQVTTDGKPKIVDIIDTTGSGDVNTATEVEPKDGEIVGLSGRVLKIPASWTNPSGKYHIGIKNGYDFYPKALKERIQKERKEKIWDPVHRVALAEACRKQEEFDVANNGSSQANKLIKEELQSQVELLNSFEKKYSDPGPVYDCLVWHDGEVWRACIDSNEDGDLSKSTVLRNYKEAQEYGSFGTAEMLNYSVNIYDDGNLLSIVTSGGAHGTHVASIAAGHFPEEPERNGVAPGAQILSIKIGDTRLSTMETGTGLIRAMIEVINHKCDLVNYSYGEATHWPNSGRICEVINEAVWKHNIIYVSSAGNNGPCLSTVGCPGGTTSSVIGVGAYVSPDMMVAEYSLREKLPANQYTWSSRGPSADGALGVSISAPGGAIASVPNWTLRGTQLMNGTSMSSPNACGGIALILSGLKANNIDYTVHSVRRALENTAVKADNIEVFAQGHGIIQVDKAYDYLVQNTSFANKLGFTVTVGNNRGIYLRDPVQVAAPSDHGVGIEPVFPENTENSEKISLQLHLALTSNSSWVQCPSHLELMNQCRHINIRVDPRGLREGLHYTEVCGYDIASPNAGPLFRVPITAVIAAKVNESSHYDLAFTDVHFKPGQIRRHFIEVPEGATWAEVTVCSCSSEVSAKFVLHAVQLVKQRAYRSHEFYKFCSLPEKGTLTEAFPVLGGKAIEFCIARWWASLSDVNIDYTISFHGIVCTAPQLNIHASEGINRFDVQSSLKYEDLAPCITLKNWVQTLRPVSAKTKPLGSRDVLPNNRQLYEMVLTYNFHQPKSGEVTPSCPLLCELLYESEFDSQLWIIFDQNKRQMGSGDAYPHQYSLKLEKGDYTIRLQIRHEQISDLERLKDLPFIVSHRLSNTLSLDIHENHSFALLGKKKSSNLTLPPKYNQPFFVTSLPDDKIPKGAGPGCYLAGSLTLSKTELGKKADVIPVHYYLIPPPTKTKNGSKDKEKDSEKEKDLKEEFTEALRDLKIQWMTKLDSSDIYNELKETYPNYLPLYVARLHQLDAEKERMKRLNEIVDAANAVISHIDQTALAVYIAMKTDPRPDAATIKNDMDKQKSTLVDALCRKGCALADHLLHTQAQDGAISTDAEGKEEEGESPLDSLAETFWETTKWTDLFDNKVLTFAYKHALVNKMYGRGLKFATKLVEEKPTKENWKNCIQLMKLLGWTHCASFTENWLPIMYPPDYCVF
UniProt Q8N4H5: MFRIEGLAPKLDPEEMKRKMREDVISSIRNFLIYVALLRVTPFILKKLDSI
UniProt Q9NS69: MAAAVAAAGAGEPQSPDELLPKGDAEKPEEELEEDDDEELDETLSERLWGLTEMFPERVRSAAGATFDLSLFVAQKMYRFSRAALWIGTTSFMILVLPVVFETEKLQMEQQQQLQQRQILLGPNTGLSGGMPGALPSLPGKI
UniProt Q8IY95: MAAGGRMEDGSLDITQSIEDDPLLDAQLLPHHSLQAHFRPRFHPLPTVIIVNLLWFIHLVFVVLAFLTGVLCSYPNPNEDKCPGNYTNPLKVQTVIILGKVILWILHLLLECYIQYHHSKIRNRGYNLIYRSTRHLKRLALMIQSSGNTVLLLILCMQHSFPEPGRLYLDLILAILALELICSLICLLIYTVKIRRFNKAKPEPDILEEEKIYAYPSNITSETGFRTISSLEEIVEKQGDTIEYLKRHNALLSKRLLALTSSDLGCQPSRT
UniProt Q969M1: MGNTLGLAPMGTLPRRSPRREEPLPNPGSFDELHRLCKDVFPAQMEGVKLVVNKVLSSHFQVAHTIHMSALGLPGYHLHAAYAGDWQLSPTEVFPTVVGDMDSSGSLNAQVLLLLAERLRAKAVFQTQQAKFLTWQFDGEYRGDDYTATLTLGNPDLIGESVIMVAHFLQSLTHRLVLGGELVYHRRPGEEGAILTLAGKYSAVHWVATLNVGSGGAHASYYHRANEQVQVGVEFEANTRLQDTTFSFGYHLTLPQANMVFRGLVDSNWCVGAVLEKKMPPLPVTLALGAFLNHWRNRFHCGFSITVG
UniProt Q9BVT8: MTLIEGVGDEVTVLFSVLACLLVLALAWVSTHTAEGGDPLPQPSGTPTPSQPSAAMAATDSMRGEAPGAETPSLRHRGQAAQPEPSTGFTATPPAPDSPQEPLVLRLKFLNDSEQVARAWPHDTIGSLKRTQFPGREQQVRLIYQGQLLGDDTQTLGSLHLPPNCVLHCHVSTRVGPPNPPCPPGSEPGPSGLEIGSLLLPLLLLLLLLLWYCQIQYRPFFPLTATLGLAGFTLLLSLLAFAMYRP
UniProt Q8NFZ5: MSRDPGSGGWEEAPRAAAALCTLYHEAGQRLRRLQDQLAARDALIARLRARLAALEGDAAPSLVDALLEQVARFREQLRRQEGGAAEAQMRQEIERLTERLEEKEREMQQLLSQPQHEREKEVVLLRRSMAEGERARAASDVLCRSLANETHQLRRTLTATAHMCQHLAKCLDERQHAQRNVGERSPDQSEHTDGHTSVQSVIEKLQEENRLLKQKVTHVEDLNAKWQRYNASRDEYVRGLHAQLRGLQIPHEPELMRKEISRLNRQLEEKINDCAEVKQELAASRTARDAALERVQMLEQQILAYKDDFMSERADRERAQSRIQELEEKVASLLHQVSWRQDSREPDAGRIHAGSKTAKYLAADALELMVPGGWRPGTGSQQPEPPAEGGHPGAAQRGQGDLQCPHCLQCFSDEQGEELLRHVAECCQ

Key:
Assay in all cases: log2 fold change, soluble protein after heating vs DMSO (PISA); higher = thermal stabilisation; K562 lysate, 10 uM; active = over 0.2 and 3.5 SD of the protein, either way, in both replicates (recomputed)
[1] = compound: C1=CC=C(C=C1)[C@H](COC2=CC3=C(C=C2)NC(=O)N3)NC(=O)C4=CC=CN(C4=O)CC5=CC(=C(C=C5)F)F
Method in brief: (§1)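 Values give the log-two fold change in thermal stability against solvent controls, from duplicates. Crude K562 extract at 1 mg/mL protein, made by dounce homogenisation in PBS pH 7.4 with 1 mM MgCl2, was treated with 10 μM compound for 30 min. After 3 min heating across 48°C-58°C, aliquots were pooled, adjusted to 0.5% NP-40 at 4°C and centrifuged at 21,000xg for 90 min. The supernatant was measured by TMTpro 16plex LC-MS/MS with channel sums equalised.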

[2] = compound: CC1=C(SC2=C1C(=N[C@H](C3=NN=C(N32)C)CC(=O)N)C4=CC=C(C=C4)Cl)C
Method in brief: as §1

[3] = compound: CC1=C2C(=CC=C1)N=C(N(C2=O)C3=CC=CC=C3C)CN4C=NC5=C(N=CN=C54)N
Method in brief: as §1

[4] = compound: Cc1sc2c(c1C)C(c1ccc(Cl)cc1)=N[C@@H](CC(=O)OC(C)(C)C)c1nnc(C)n1-2
Method in brief: as §1

[5] = compound: c1ccc([C@@H]2C[C@H]2NC2CCNCC2)cc1
Method in brief: as §1

Measured: log2 fold change

TMEM263 (UniProt Q8WUH6)
inactive: [1] -0.286 | [2] -0.048 | [3] 0.211 | [4] -0.138 | [5] -0.073

TNFRSF10A (UniProt O00220)
inactive: [1] 0 | [2] -0.054 | [3] 0.033 | [4] -0.008 | [5] 0.127

TMEM189-UBE2V1 (UniProt I3L0A0)
inactive: [1] 0.001 | [2] -0.036 | [3] 0.014 | [4] -0.048 | [5] -0.041

TMEM62 (UniProt Q0P6H9)
inactive: [1] 0.216 | [2] -0.1 | [3] -0.017 | [4] -0.057 | [5] 0.153

TNIP1 (UniProt Q15025)
inactive: [1] -0.044 | [2] 0.036 | [3] -0.067 | [4] -0.019 | [5] -0.066

TMEM63A (UniProt O94886)
inactive: [1] -0.011 | [2] -0.04 | [3] 0.009 | [4] 0.066 | [5] 0.011

TPD52L1 (UniProt Q16890)
inactive: [1] 0.062 | [2] 0.032 | [3] -0.019 | [4] 0.024 | [5] -0.021

TMEM242 (UniProt Q9NWH2)
inactive: [1] 0.127 | [2] -0.001 | [3] -0.044 | [4] 0.089 | [5] -0.01

TPM1 isoform 4 (UniProt P09493)
inactive: [1] -0.008 | [2] -0.012 | [3] 0 | [4] 0.003 | [5] 0.056

TMEM69 (UniProt Q5SWH9)
inactive: [1] 0.046 | [2] -0.062 | [3] -0.031 | [4] -0.213 | [5] -0.099

TNFAIP2 (UniProt Q03169)
inactive: [1] -0.034 | [2] 0.024 | [3] 0.027 | [4] 0.002 | [5] -0.059

TPCN1 isoform 3 (UniProt Q9ULQ1)
inactive: [1] -0.069 | [2] 0.041 | [3] 0.054 | [5] 0.991

TMEM30A (UniProt Q9NV96)
inactive: [1] 0.047 | [2] -0.013 | [3] -0.007 | [4] -0.014 | [5] -0.008

TMPO (UniProt P42167)
inactive: [1] -0.017 | [2] 0.044 | [3] -0.042 | [4] 0.042 | [5] -0.023

TPM4 isoform 2 (UniProt P67936)
inactive: [1] -0.059 | [2] -0.012 | [3] 0.02 | [4] 0.053 | [5] 0.1

TMEM223 (UniProt A0PJW6)
inactive: [1] 0.221 | [2] -0.016 | [3] -0.051 | [4] 0.118 | [5] 0.008

TMEM8A (UniProt Q9HCN3)
inactive: [1] -0.132 | [2] 0.04 | [3] -0.027 | [5] -0.053

Random excerpt: 2 records from the list, in no set order.
TPCN1 isoform 3 (UniProt Q9ULQ1)
inactive: [1] -0.069 | [2] 0.041 | [3] 0.054 | [5] 0.991

TNFAIP2 (UniProt Q03169)
inactive: [1] -0.034 | [2] 0.024 | [3] 0.027 | [4] 0.002 | [5] -0.059

Going on with the list:

TOMM20 (UniProt Q15388)
inactive: [1] 0.05 | [2] 0.015 | [3] 0.036 | [4] -0.027 | [5] -0.024

TMEM259 (UniProt Q4ZIN3)
inactive: [1] -0.041 | [2] 0.044 | [3] 0.082 | [4] -0.062 | [5] 0.069

TPP2 (UniProt P29144)
inactive: [1] 0.006 | [2] 0.008 | [3] -0.002 | [4] 0.039 | [5] 0.025

TOMM5 (UniProt Q8N4H5)
inactive: [1] 0.004 | [2] -0.032 | [3] 0 | [4] 0.028 | [5] 0.237

TOMM22 (UniProt Q9NS69)
inactive: [1] 0.044 | [2] -0.012 | [3] 0.003 | [4] -0.043 | [5] 0.004

TRADD (UniProt Q15628)
inactive: [1] -0.051 | [2] -0.016 | [3] 0.112 | [4] 0.05 | [5] 0.033

TMEM192 (UniProt Q8IY95)
inactive: [1] 0.005 | [2] -0.056 | [3] -0.026 | [4] -0.013 | [5] 0.007

TRABD (UniProt Q9H4I3)
inactive: [1] 0.039 | [2] 0.025 | [3] 0.05 | [4] 0.006 | [5] -0.077

TOMM40L (UniProt Q969M1)
inactive: [1] -0.024 | [2] 0.005 | [3] -0.003 | [4] -0.022 | [5] -0.053

TMUB1 (UniProt Q9BVT8)
inactive: [1] -0.037 | [2] 0.003 | [3] 0.082 | [4] -0.007 | [5] 0.152

TNIP2 (UniProt Q8NFZ5)
inactive: [1] -0.095 | [2] -0.045 | [3] -0.051 | [5] 0.039
